According to publication doi:10.1101/695700:
Changes are numbered by the printed parent chain. Results are given in words; binding and its absence hold for the method and conditions named. Some results given as binding are weak or reduced against the parent protein; the word gives no strength.

Sequences of proteins named here, by UniProt entry; tags and fusion partners are left off. Residues count along the entry.
UniProt P04004, residues 20-478: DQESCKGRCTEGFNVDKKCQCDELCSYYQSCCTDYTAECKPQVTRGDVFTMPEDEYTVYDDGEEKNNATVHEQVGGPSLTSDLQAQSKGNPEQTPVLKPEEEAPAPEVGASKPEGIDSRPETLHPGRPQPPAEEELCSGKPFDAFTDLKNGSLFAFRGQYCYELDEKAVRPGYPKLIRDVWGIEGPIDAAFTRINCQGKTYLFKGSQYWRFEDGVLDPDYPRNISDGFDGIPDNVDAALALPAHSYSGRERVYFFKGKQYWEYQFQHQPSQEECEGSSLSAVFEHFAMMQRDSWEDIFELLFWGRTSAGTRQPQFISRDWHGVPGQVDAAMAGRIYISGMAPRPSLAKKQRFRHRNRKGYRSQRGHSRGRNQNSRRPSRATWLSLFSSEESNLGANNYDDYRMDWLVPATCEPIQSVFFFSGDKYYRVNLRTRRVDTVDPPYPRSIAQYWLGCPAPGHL

What was measured:
Experiment in all cases: SPR
[1] = target: T1, rHC1 D298A (MIDAS site mutant) (human) (UniProt P19827)
T1 sequence: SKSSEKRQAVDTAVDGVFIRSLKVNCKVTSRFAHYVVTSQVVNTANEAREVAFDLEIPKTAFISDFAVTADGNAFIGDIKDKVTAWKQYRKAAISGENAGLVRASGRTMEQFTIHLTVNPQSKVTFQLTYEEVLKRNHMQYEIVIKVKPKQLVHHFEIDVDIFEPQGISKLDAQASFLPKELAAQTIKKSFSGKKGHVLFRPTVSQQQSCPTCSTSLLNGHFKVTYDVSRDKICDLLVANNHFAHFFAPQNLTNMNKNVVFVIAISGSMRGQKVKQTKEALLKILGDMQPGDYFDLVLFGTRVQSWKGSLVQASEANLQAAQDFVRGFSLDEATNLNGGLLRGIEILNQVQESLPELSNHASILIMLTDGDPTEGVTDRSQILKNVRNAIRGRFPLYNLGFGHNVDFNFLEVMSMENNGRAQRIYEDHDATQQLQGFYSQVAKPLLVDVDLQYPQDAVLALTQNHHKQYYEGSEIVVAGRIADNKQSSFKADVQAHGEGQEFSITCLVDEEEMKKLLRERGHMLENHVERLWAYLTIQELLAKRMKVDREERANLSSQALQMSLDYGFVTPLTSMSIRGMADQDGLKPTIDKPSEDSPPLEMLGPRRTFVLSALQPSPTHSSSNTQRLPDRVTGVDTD

[2] = target: T2, rHC1 ΔvWFa mutant (lacking residues 288-478) (human) (UniProt P19827)
T2 sequence: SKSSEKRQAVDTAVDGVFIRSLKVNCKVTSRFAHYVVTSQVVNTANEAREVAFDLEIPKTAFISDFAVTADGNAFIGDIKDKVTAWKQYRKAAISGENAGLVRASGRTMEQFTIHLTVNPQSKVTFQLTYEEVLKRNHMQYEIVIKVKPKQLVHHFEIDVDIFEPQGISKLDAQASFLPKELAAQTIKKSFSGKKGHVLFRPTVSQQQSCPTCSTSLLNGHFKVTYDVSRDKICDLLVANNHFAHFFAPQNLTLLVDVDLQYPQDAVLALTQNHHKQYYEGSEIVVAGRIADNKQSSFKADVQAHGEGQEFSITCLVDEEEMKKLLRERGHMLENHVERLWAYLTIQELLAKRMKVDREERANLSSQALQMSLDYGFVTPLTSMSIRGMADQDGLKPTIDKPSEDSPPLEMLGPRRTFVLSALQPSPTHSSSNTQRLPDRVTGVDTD

[3] = target: T3, recombinant HC1 (rHC1), wild type; heavy chain 1 of inter-α-inhibitor (human) (UniProt P19827)
T3 sequence: T1 sequence with A264D

Measured: binding

vitronectin (from UniProt P04004 20-478)
binds: all assays above
